Test results: patent US20080026456A1, “Method and apparatus for reducing pathogens in a biological sample” (priority 2002, published 2008)
At least one structure is not confirmed: it was looked up by name or label, or the drawing left a doubt.

How the values were obtained:
[1] = tested on: Brucella abortus Strain 19; type: cell-based
[2] = tested on: Campylobacter fetus isolate [4914]; type: cell-based

NC[C@H]1O[C@H](O[C@H]2[C@H](O)[C@@H](O[C@H]3O[C@H](CO)[C@@H](O)[C@H](N)[C@H]3O)[C@H](N)C[C@@H]2N)[C@H](O)[C@@H](O)[C@@H]1O [kanamycin]
sensitivity of isolate to antibiotic [1]: sensitive
sensitivity of isolate to antibiotic [2]: sensitive
